Results deposited as PubChem BioAssay AID504808 (Drosophila RNAi Screening Center, 2011).

Purpose: 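Chromatin factors that keep E2F targets switched off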 (primary screen)
Cells: Drosophila S2 cells
Knock-down reagent: long dsRNA against Drosophila genes
Measurement: 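Firefly luciferase driven by E2F sites, normalised to Renilla luciferase on the same minimal promoter, measured by plate reader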
Reading the numbers: E2F firefly: higher = more E2F reporter activity; Renilla normaliser: higher = more normaliser reporter signal
Rule for the call: 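Called active if the normalised E2F reporter went up by over 50%; the cutoff is arbitrary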
The deposit covers about 21,000 reagents; shown is a random part of those that have a named target and a result. In the full data, 18 (0.084%) got an active call. 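Raw counts without plate normalisation, one of two replicates; the ratio scores behind the calls were not deposited.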 Unmarked entries are inactive. Not stated in the record: the amount of reagent, the time to read-out.

After knock-down of CG14324 [DRSC14803], the record shows E2F firefly, rep 1 = 94543; Renilla normaliser, rep 1 = 4942. With knock-down of CG5292 [DRSC15763], the screen gave E2F firefly, rep 1 = 1.22e5; Renilla normaliser, rep 1 = 6735. Urod (Uroporphyrinogen decarboxylase) [DRSC07569] gave E2F firefly, rep 1 = 1.36e5; Renilla normaliser, rep 1 = 5110. Against Tom7 (Translocase of outer membrane 7) [DRSC05135], the entry reads E2F firefly, rep 1 = 1.36e5; Renilla normaliser, rep 1 = 5182. Tom7 (Translocase of outer membrane 7) [DRSC07113] scored E2F firefly, rep 1 = 1.43e5; Renilla normaliser, rep 1 = 4558. Depletion of Cyp4d14 (Cytochrome P450 4d14) [DRSC18457] resulted in: E2F firefly, rep 1 = 1.11e5; Renilla normaliser, rep 1 = 5895.

U2af38 (U2 small nuclear riboprotein auxiliary factor 38) [DRSC00796] showed E2F firefly, rep 1 = 83760; Renilla normaliser, rep 1 = 3881. Depletion of ppl (pumpless) [DRSC11899] resulted in: E2F firefly, rep 1 = 80738; Renilla normaliser, rep 1 = 4180. Against CG9588 [DRSC16504] the deposit lists E2F firefly, rep 1 = 1.05e5; Renilla normaliser, rep 1 = 5717. Depletion of PGAP3 (Post-GPI attachment to proteins 3) [DRSC04989] resulted in: E2F firefly, rep 1 = 77980; Renilla normaliser, rep 1 = 3582. Knock-down of alphaCOP (Coat Protein (coatomer) alpha) [DRSC08706] resulted in: E2F firefly, rep 1 = 57176; Renilla normaliser, rep 1 = 4158. Depletion of Cph (Chronophage) [DRSC17507] gave: E2F firefly, rep 1 = 77392; Renilla normaliser, rep 1 = 2448.

With knock-down of Cph (Chronophage) [DRSC18434] the results were E2F firefly, rep 1 = 53402; Renilla normaliser, rep 1 = 4074.

Copied from the listing, 4 entries:
U2af38 (U2 small nuclear riboprotein auxiliary factor 38) [DRSC00796] → E2F firefly, rep 1: 83760; Renilla normaliser, rep 1: 3881
ppl (pumpless) [DRSC11899] → E2F firefly, rep 1: 80738; Renilla normaliser, rep 1: 4180
CG9588 [DRSC16504] → E2F firefly, rep 1: 1.05e5; Renilla normaliser, rep 1: 5717
PGAP3 (Post-GPI attachment to proteins 3) [DRSC04989] → E2F firefly, rep 1: 77980; Renilla normaliser, rep 1: 3582

The listing continues.
Against Alp2 (Alkaline phosphatase 2) [DRSC04354], the entry reads E2F firefly, rep 1 = 93129; Renilla normaliser, rep 1 = 3717. CG10492 [DRSC02064] scored E2F firefly, rep 1 = 72530; Renilla normaliser, rep 1 = 3278. For CG1636 [DRSC18111] the deposit lists E2F firefly, rep 1 = 74883; Renilla normaliser, rep 1 = 3418. Depletion of ppk30 (pickpocket 30) [DRSC15302] came out at: E2F firefly, rep 1 = 1.30e5; Renilla normaliser, rep 1 = 6917. Against CG31823 [DRSC01887], the entry reads E2F firefly, rep 1 = 1.05e5; Renilla normaliser, rep 1 = 4579. SPARC (Secreted protein, acidic, cysteine-rich) [DRSC14123] scored E2F firefly, rep 1 = 1.20e5; Renilla normaliser, rep 1 = 5535.

Depletion of san (separation anxiety) [DRSC07695] came out at: E2F firefly, rep 1 = 1.04e5; Renilla normaliser, rep 1 = 4430. After knock-down of Arl4 (ADP ribosylation factor-like 4) [DRSC17156] the results were E2F firefly, rep 1 = 42077; Renilla normaliser, rep 1 = 3153. RhoGAP16F (Rho GTPase activating protein at 16F) [DRSC20025] showed E2F firefly, rep 1 = 1.41e5; Renilla normaliser, rep 1 = 5372. For lz (lozenge) [DRSC18790], the values are E2F firefly, rep 1 = 1.21e5; Renilla normaliser, rep 1 = 5977. Nct (Nicastrin) [DRSC16172] scored E2F firefly, rep 1 = 80131; Renilla normaliser, rep 1 = 5164. For Tengl4 (Testis EndoG-Like 4) [DRSC15620] the deposit lists E2F firefly, rep 1 = 1.37e5; Renilla normaliser, rep 1 = 6497.

After knock-down of CG11406 [DRSC04010] the results were E2F firefly, rep 1 = 1.28e5; Renilla normaliser, rep 1 = 5697. With knock-down of CG11406 [DRSC04108], the screen gave E2F firefly, rep 1 = 1.24e5; Renilla normaliser, rep 1 = 4685. Against CG12861 [DRSC06201], the values are E2F firefly, rep 1 = 1.03e5; Renilla normaliser, rep 1 = 5923.
